Assay results reported in patent US9469659B2, “Compositions and methods for improving glucose uptake” (Board of Supervisors of Louisiana State University and …, priority 2012, dated 2016).
Some entries share one result that the patent states for a list of compounds.

The compounds below were run on 3T3-L1 pre adipocytes (assay: Cell toxicity of compounds at various doses). Settings: 50 μM and 100 μM, Day 2 of exposure, compared with DMSO control.
Format: cell-based
Procedure: For the following screens, compounds 1-5 were dissolved in DMSO. 3T3-L1 pre adipocytes were first exposed to different concentrations (5 μM, 10 μM, 20 μM, 50 μM and 100 μM) of the compounds to test for toxicity compared with DMSO control exposure. Exposure to other concentrations was followed until Day 5. Compound 2 was the most toxic at 20 μM on Day 5.

Compound	Toxicity and cell death (in words)
N#CC(Nc1ccc([B-](F)(F)F)cc1)c1cc(-c2ccc(F)cc2)on1 (centres unmarked) [Compound 4]	extreme toxicity and cell death
Cc1cc(C(C#N)Nc2ccc(B3OC(C)(C)C(C)(C)O3)cc2)no1 (centres unmarked) [Compound 3]	extreme toxicity and cell death
CC1(C)OB(c2ccc(NC(C#N)c3cc(-c4ccc(F)cc4)on3)cc2)OC1(C)C (centres unmarked) [Compound 1]	extreme toxicity and cell death
N#CC(Nc1ccc([B-](F)(F)F)cc1)c1ccco1 (centres unmarked) [Compound 5]	extreme toxicity and cell death
CC1(C)OB(c2ccc(NC(C#N)c3cc(-c4ccccc4)on3)cc2)OC1(C)C (centres unmarked) [Compound 2]	extreme toxicity and cell death
